Assay [1] addresses T1, chimeric human integrin alpha-11 with its I-domain replaced by the human alpha-2 I-domain, EGFP fusion, on C2C12 cells (human) (UniProt Q9UKX5+P17301).
T1 sequence (looked up): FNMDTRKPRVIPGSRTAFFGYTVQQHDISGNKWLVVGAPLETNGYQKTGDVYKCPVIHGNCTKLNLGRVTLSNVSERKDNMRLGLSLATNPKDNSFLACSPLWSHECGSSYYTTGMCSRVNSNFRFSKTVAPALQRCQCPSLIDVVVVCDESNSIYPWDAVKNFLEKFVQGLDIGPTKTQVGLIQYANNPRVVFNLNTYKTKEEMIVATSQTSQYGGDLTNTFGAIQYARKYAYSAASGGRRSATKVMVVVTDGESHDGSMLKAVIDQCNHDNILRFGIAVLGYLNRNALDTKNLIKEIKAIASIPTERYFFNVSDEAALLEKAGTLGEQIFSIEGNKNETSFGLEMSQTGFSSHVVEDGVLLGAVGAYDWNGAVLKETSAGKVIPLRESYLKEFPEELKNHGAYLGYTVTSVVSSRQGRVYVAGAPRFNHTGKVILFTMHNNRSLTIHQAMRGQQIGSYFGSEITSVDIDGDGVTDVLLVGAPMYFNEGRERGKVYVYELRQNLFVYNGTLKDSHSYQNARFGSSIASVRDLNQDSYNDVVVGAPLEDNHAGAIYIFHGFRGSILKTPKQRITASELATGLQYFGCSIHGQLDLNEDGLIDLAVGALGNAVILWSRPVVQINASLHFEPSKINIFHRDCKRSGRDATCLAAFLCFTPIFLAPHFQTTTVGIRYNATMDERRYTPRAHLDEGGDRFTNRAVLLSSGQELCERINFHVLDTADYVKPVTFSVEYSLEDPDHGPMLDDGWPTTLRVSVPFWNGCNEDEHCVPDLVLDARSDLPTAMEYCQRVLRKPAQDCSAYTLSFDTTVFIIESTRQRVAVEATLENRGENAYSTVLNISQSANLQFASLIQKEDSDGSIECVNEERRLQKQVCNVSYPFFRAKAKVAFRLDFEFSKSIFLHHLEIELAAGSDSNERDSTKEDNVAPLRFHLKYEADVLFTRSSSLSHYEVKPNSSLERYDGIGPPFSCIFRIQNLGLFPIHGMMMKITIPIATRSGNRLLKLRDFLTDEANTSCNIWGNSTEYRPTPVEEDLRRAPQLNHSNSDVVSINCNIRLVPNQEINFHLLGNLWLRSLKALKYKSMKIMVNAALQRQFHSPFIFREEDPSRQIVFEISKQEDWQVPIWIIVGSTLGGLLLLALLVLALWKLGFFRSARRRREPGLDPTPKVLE
Nature of the assay: flow cytometry on fixed transfected C2C12 cells. In general terms: A flow cytometer gives signals particle by particle.

Chains of the proteins cited; added tags and fusions are not shown. Lines headed by an entry give the natural chain unless they say otherwise; changes in a name come on top.
UniProt P17301: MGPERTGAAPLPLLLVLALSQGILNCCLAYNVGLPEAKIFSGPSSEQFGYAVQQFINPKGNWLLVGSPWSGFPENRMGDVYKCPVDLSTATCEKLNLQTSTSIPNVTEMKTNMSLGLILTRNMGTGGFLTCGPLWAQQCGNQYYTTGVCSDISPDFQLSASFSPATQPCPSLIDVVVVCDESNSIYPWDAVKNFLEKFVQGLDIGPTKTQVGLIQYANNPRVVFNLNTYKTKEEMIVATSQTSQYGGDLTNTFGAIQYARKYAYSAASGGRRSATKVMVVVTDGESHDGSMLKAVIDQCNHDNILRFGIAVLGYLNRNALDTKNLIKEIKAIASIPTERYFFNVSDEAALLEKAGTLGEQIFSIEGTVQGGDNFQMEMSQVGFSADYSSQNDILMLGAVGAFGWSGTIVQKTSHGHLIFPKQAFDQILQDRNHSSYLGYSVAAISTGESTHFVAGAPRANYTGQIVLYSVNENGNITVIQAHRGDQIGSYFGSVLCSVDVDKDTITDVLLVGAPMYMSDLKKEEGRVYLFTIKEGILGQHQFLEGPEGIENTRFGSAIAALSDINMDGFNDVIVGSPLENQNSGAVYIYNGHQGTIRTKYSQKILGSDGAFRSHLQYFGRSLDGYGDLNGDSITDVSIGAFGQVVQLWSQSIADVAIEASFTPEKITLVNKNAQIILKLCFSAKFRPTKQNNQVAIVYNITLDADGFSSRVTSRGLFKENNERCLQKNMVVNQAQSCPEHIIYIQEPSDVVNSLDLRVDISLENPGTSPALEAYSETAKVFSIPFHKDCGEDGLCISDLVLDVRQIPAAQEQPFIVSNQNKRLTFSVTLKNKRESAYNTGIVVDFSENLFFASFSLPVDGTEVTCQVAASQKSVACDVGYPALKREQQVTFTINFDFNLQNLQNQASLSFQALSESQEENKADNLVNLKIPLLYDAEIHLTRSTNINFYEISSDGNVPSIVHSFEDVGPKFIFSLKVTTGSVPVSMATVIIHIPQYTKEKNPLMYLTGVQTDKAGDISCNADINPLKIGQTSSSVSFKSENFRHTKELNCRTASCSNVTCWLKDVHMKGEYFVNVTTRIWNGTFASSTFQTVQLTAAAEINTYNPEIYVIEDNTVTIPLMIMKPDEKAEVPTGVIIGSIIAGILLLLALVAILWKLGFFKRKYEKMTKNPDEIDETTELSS

In assay [2] the target is T2, human integrin α11-EGFP expressed on C2C12 mouse myoblast cells (human) (UniProt Q9UKX5).
T2 sequence (looked up): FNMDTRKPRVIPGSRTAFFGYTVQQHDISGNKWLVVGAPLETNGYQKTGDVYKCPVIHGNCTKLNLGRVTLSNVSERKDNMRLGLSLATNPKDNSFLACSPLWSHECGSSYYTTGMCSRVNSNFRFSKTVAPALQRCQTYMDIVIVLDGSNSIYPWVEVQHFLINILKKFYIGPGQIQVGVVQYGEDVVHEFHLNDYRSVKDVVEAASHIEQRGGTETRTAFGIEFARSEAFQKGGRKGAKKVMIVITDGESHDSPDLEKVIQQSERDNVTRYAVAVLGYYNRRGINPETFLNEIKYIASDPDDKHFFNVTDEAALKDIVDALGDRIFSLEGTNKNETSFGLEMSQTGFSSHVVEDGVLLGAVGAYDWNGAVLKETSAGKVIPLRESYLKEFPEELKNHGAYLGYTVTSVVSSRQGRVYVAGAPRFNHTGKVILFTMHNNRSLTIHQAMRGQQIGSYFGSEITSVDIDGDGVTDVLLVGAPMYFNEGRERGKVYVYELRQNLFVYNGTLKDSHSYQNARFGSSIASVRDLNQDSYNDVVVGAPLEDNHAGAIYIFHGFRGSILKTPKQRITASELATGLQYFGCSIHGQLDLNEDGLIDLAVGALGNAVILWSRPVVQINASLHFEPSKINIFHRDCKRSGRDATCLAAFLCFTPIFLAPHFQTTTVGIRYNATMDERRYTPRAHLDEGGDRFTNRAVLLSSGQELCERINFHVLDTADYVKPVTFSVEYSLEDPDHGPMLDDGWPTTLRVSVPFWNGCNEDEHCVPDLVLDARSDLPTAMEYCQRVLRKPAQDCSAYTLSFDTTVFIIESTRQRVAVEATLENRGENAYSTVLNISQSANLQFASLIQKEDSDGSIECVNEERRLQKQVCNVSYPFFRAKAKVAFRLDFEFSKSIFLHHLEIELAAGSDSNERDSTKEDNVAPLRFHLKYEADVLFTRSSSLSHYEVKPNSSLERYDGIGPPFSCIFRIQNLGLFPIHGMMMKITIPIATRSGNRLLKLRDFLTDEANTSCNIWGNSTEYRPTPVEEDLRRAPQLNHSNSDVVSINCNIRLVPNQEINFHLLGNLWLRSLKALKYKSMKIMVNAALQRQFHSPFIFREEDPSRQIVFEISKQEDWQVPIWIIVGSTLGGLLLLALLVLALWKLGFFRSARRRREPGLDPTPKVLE
As to the kind of experiment: flow cytometry on fixed transfected C2C12 cells.

Assay [3] concerns the target T2, human integrin α11-EGFP expressed on C2C12 mouse myoblast cells (human). Nature of the assay: Western blot on C2C12-hu α11-EGFP lysate. On the technique in general: In western blotting, separated proteins are transferred to a membrane and probed.

No constants are given. Whether binding was seen depends on the method and setting. Some binding calls cover weakened binding; strength is not graded here. Tags and fused reporters may be left off the sequences shown.

B1: monoclonal mouse antibody 203 E1H5 produced by the hybridoma deposited as DSM ACC3318 (antibody, V domains shown)
VH: QVQLKESGPGLVAPSQSLSITCTVSGFSLTNYAVHWVRQSPGKGLEWLGVIWSYGSTDYNAAFISKLSISKDNSKSQVFFTMSSLQADDTAIYYCARSQIYGGFYDFFDFWGQGTTLTVSS
VL: CDIQMTQTPSSLSASLGDRVTIICRASQDISNFLNWFQQKPDGTIKLLIYYSSRLHSGVPSRFSGSGSGTDYSLTISNLEQEDLATYFCQQGNTLPLTFGAGTKLELT
notes: Mouse anti-human alpha-11 IgG from a hybridoma (NT-HRM mice); used as hybridoma supernatant or mAb; also called 203E1H5 mAb; α11 203E1H5 mAb
For the molecule B1, the binding entry in assay [1], in assay [2] and in assay [3] was “binds” throughout.

B2: monoclonal mouse antibody 234 H11E8 produced by the hybridoma deposited as DSM ACC3319 (antibody, V domains shown)
VH: QVQLKESGPGLVAPSQSLSITCTVSGFSLTNSAVHWVRQSPGKGLEWLGVVWSYGSTDYNAAFISRLSITKDNSKSQVFFKMNSLQADDTAIYYCARSQIYADYYDYFDYWGQGTTLTVSS
VL: DIQMTQSTSSLSASLGDRVTISCRASQDISNFLNWSQQKPDGTVKLLIYYTSRLHSGVPSRFSGSGSGTDYSLTISNLEQEDIGTYFCQQGNTLPLTFGAGTKLELR
notes: Mouse anti-human alpha-11 IgG from a hybridoma (NT-HRM mice); used as hybridoma supernatant or mAb; constant regions are not; also called 234H11E8 mAb; α11 234H11E8 mAb
For B2, in assay [1], the binding entry was “binds”.

(Values after patent publication US20210079099A1 (VESTLANDETS INNOVASJONSSELSKAP, published 2021).)
